This is one part of the list.

The test relates to T1, CTL2-GFP (C. trachomatis L2/434/Bu, GFP-expressing).
T1 construct: L2/434/Bu, GFP-expressing
The arrangement: species or system HeLa; Intracellular C. trachomatis growth in HeLa cells, bulk GFP fluorescence relative to DMSO. The settings on record: bulk GFP, single well; 28.5 h, 10 µM; inhibitor.
As for `Cc1ccc(OCc2occc2C(=O)N2CCCC3(CCOC3)C2)cc1` (stereo not drawn) [CBK307532], the “% of control remaining” value came to 116.346%.

As to `N#Cc1ccc(Oc2cccc(/N=C/c3ccc(/C=N/c4cccc(Oc5ccc(C#N)cc5)c4)cc3)c2)cc1` [CBK261157], the “% of control remaining” value worked out at 108.208%.

For `COCCN(Cc1cnn(C)c1)C(=O)Nc1cccc2nc(C)ccc12` [CBK306529], the “% of control remaining” value turned out to be 106.71%.

On to `Cc1nc2ccc(NC(=S)N3c4ccccc4CC3C)cc2nc1C` (stereo not drawn) [CBK263169], for which the “% of control remaining” value amounted to 96.2306%.

`CC(C)CNc1cc(Cl)c(S(=O)(=O)NCC(C)C)cc1C(=O)O` [CBK263405]: the “% of control remaining” value was found to be 128.588%.

In the case of `CCC(C(=O)N1CCc2nc(C)[nH]c(=O)c2C1)c1ccccc1` (stereo not drawn) [CBK284618], the “% of control remaining” value stood at 112.117%.

With `Cc1ccc(SCc2ccc(C(=O)NCCN3CCOCC3)cc2)cc1` [CBK269314], the “% of control remaining” value is 153.825%.

With `CN(CC(=O)Nc1cncc(OC2CCNCC2)n1)C(=O)c1ccccc1` [CBK028440T], the “% of control remaining” value amounted to 110.053%.

In the case of `CCCCN(C)c1nccnc1-c1cccnc1` [CBK037631], the “% of control remaining” value is listed as 171.867%.

`Cc1csc(CN(C)C(=O)c2cc3sccc3[nH]2)n1` [CBK304334]: the “% of control remaining” value was determined as 138.485%.

Turning to `CSc1ccccc1C(=O)NCCCn1ccnc1` [CBK269749], the “% of control remaining” value stood at 113.861%.

Take `Cc1cccc(N2C(=O)c3ccc(C(=O)OC(C(=O)c4ccccc4)c4ccccc4)cc3C2=O)c1` (stereo not drawn) [CBK265098]: the “% of control remaining” value was 126.426%.

On to `O=C1C=CC2=C3Oc4c(ccc5cc(O)ccc45)C(c4ccccc4C(=O)O)C3C=CC2=C1` (stereo not drawn) [CBK278169N], for which the “% of control remaining” value is 100%.

For `Cc1ccc(-n2cccn2)cc1S(=O)(=O)NCCN1CCCCC1CO` (stereo not drawn) [CBK307163], the “% of control remaining” value stood at 76.7929%.

As for `CCn1cnc2cc(NC(=O)C3CC4C=CC3C43CC3)ccc21` (stereo not drawn) [CBK281384], the “% of control remaining” value is given as 135.736%.

In the case of `CCN(CC)CCOc1c(C)cc(Cl)cc1C` [CBK262219], the “% of control remaining” value was 124.605%.

As to `O=C(c1n[nH]c2ccccc12)N1CCc2ccccc2C1` [CBK200330], the “% of control remaining” value is given as 105.104%.

As to `CC(C)c1ccc(S(=O)(=O)Nc2cccnc2)cc1` [CBK043884], the “% of control remaining” value is listed as 68.8458%.

With `O=C(CC[C@@H]1CNC(=O)[C@@H]2C[C@H](NC(=O)c3ccco3)CN12)Nc1ccccc1` [CBK289007], the “% of control remaining” value is listed as 90.2284%.

In the case of `CC(O)(c1ccncc1)c1nccs1` (stereo not drawn) [CBK281504], the “% of control remaining” value was determined as 135.113%.

`CCc1c(C)nc2ccccc2c1[S+]([O-])CCC(=O)OC` (stereo not drawn) [CBK155467T]: the “% of control remaining” value worked out at 105.896%.

Consider `Cc1cc(C)c(S(=O)(=O)Nc2ccccc2C(=O)NCc2ccco2)c(C)c1` [CBK266382], for which the “% of control remaining” value was found to be 126.588%.

`CC1(C)Cc2nc3nc(SCC(=O)c4ccc(Br)cc4)n(-c4ccccc4)c(=O)c3cc2CO1` [CBK263310]: the “% of control remaining” value is on record as 114.78%.

With `O=C(CCn1c(C(F)F)cc2cccnc21)NCC1CCCO1` (stereo not drawn) [CBK282165], the “% of control remaining” value came to 125.53%.

`COc1cc(C2NC(=S)NC(c3ccccc3)=C2C(=O)c2ccccc2)cc(I)c1OCCO` (stereo not drawn) [CBK267485]: the “% of control remaining” value was 117.332%.

Consider `COCC(=O)Nc1c[nH]nc1C1CCCN(c2cccc(F)c2C#N)C1` (stereo not drawn) [CBK305395], for which the “% of control remaining” value is given as 91.1638%.

As for `CC1CCN(C(=O)Cn2c(=O)n(C(C)C)c3ncccc32)CC1` [CBK283698], the “% of control remaining” value stood at 132.791%.

For `CCC(CO)Nc1nccnc1-c1ccc(CO)cc1` (stereo not drawn) [CBK036607], the “% of control remaining” value is given as 145%.

On to `Cc1cc(C)c(NC(=O)CSCc2cc(O)[nH]n2)c(Cl)c1` [CBK268302], for which the “% of control remaining” value is on record as 133.562%.

For `CC(NC(=O)CCc1cnn(C)c1)c1cccc(-n2ccnc2)c1` (stereo not drawn) [CBK306139], the “% of control remaining” value worked out at 129.58%.

Regarding `COc1ccc(Nc2cc(-c3ccccc3OC)ncn2)cn1` [CBK037176], the “% of control remaining” value is 199.805%.

Regarding `COc1ccc(-c2cc(C(F)(F)F)nc(SCC(=O)N3CCN(C)CC3)n2)cc1OC` [CBK266194], the “% of control remaining” value amounted to 151.445%.

As to `CCOC(=O)CNS(=O)(=O)Cc1ccccc1[N+](=O)[O-]` [CBK034439], the “% of control remaining” value is listed as 111.276%.

Turning to `O=C(Nc1ccc(N2CCN(Cc3ccccc3)CC2)cc1)c1ccc(-c2ccccc2)cc1` [CBK268622], the “% of control remaining” value was found to be 87.7187%.

For `Cc1ccc(-n2ncc(C(=O)N3CCc4ccccc4C3)c2NC(=O)c2ccco2)cc1C` [CBK267207], the “% of control remaining” value is on record as 134.321%.

Regarding `O=C(O)CC1C(=O)NCCN1CCCc1ccccc1` (stereo not drawn) [CBK287176], the “% of control remaining” value is 86.7918%.

As to `CCCCSc1nc(N)cc(N2CCN3C(=O)CN(C)C(=O)C3C2)n1` (stereo not drawn) [CBK306940], the “% of control remaining” value turned out to be 132.81%.

In the case of `CCn1c(SCC(=O)Nc2cc(C)ccc2F)nnc1-c1ccccc1O` [CBK269532], the “% of control remaining” value is given as 82.0267%.

As for `O=C(CN(c1ccccc1)S(=O)(=O)c1ccccc1[N+](=O)[O-])Nc1ccc(I)cc1` [CBK263755], the “% of control remaining” value was found to be 89.2294%.

On to `O=[N+]([O-])c1ccc(S(=O)(=O)N2CCC3(CC2)OCCO3)cc1` [CBK269303], for which the “% of control remaining” value is 94.8142%.

On to `c1ccc(CN2CCN(Cc3ccccc3)C2c2ccc[nH]2)cc1` [CBK261283], for which the “% of control remaining” value was found to be 100%.

`O=C(CN1CCOCC1)N/N=C/c1cc2ccccc2nc1Cl` [CBK262732]: the “% of control remaining” value stood at 132.562%.

In the case of `COCCN(Cc1cnn(C)c1)C(=O)Cc1coc2cc(C)c(Cl)cc12` [CBK307435], the “% of control remaining” value is given as 76.4931%.

For `Cc1cc(-c2nccnc2N2CCN(CCN(C)C)CC2)cc(C)c1O` [CBK037184], the “% of control remaining” value worked out at 127.235%.

Turning to `COc1cccc(CC(=O)N2CCC[C@@H](N)[C@@H]2c2ccccc2F)c1` [CBK283455], the “% of control remaining” value is recorded as 172.994%.

Take `O=C(c1nc2ccccc2[nH]1)N1CCN(c2ccccc2)CC1` [CBK200167]: the “% of control remaining” value was determined as 102.105%.

`CC(NC(=O)CCC1CCCC1)c1nc(-c2ccncc2)cs1` (stereo not drawn) [CBK305819]: the “% of control remaining” value is given as 135.436%.

With `COc1cccc(CN2CCCC[C@H]3CN(C(C)=O)C[C@H]32)c1` [CBK285510], the “% of control remaining” value is 111.766%.

With `O=C(O)CNC(=O)c1ccccc1NC(=O)c1ccco1` [CBK286894], the “% of control remaining” value was found to be 102.03%.

Take `O=C(Nc1nc(-c2cccs2)cs1)c1ccc(F)cc1` [CBK287327]: the “% of control remaining” value came out at 90.2467%.

On to `Cc1ccnc(SCc2cc(=O)c3c(=O)n(-c4ccccc4)[nH]c3[nH]2)n1` [CBK269875], for which the “% of control remaining” value is 106.087%.

Source of the values: publication PMC12040169 (PLOS Biology, 2025).
